Laboratory results reported in doi:10.1101/543645.
These are yes or no findings as the source states them, for the method shown. For part of these data: A result given as binding can be weak or reduced; the word gives no strength.

Experiments:
Assay in all cases: two-hybrid
[1] = target: GBD–NtNPR1(386-588) (tobacco (Nicotiana tabacum))
[2] = target: NtNPR1(466-588), reciprocal Gal4 fusion (Gal4 DNA-binding domain) (tobacco (Nicotiana tabacum))
[3] = target: Gal4 DNA-binding domain (GBD)–NPR1(386-465) (tobacco (Nicotiana tabacum))

Row | binding [1] | binding [2] | binding [3] | Binder
1 | binds |  |  | TGA1a (protein, UniProt P14232 1-359) MGICDPIHQLGMWDDFNSSFPSTSATMILEVDKCLEDQIPIMEKRLDNETEDTSHGTVGTSNRYEPETSKPVEKVLRRLAQNREAARKSRLRKKAYVQQLENSKLKLIQLEQELERARKQGMCVGGGVDASQLSYSGTASSGTAVFDMEYGHWVEEQTRQTNDLRIALHSQIGEAELRIIVDGYLNHYFDLFRMKATAAKADVLYIMSGMWKTSAERFFMWIGGFRPSELLKVLTPHLELLTEQQLREVCNLTQSCQQAEDALSQGMVKLHQILAEAVAAGRLGEGNYTLPQMGPAIEKLEDLVRFVNQADHLRQETLQQMSRILNTCQAAQGLLALGEYFERLRVLSSQWATRLREPT
2 |  | no binding | no binding | NtTGA2.1 (protein, UniProt O24160 1-456) MASKIGTAGNRSGTTGMPSFISQIPVSNPMGTEANNTNTSRMSDFGVLEQYLGFRIGDGANVNRSPLFNSTSATNPAVGFEVSGTINRTLAPSNTSLPTATPRSQTMLLQSNLVSASGTHHENWGESNMADSGSRTDTSTDMDGDDKNQLIEAGQSSDKSKEKVLDQKTLRRLAQNREAARKSRLRKKAYVQQLENSRLKLSQLEQDLQRARQQGKYISNIADQSNGVGANGPLAFDAEYSRWLEEHNKHINELRTAVNAHASDPELRSIVNNVTAHFDEVFRVKGNAAKADVFHVLSGMWKTPAERCFMWIGGFRPSELLKLLVNQLEPLTEQQLAGIYNLQQSSHQAEDALSQGMEALQQSLAETLANGSPAPEGSSGDVANYMGQMAMAMGKLGTLEGFLRQADNLRQQTLQQMHRVLTTRQSARALLAINEYFSRLRALSSLWLARPREQLV
